# Assay results taken from PubChem BioAssay AID248 (DTP/NCI, 2004).
# The list does not hold the whole screen: it gathers tests that were run many times, whatever their T/C, doses with no T/C, and many T/C values between a quarter and a half above the control. Further doses and runs are listed elsewhere. T/C gives the treated animals as a percentage of the vehicle group. Some entries give survivors of the animals treated and no T/C: the source files T/C as zero there, which appears to mark a toxic dose or a test without result, not a measured value. Some survivor counts are full or nearly so, which does not show that the dose was tolerated: the source hardly ever lists a survival T/C far under the control, and the zero likely stands for such cases as well. Survivors were counted at the toxicity check, usually on the fifth day, unless a day is given; later deaths do not show. Schedules are NCI's codes, read here as Q, the interval in days (D) or hours (H), X, the number of doses. Some schedules carry Z or #; the key to these is not given. Some structures stand for samples that the source files as different forms (salt, stereo form or complex); doses refer to the form tested. Counts like (3×) say how often a value occurs here. Some entries were tested several times; the results are listed from low to high. Where survival is the endpoint, the PubChem record calls one and a half times the control and up active, and a quarter to a half above the control has no call in these data; cut-offs in other NCI protocols can differ. Some T/C values are followed by the survivors on the day toxicity was checked, most often the fifth; without a count, all were alive then.
# Tested on: L1210 leukemia ip in BDF1 mice, survival T/C
# Experiment: NCI In Vivo Anticancer Drug Screen. Data for tumor model L1210 Leukemia (intraperitoneal) in B6D2F1 (BDF1) mice
# Conditions: T/C endpoint: mean survival time, higher T/C = longer survival
# [1] = dose: 400.0 mg/kg/injection, schedule: Q01DX009 (ip), vehicle: saline with Tween-80
# [2] = dose: 100.0 mg/kg/injection, schedule: Q01DX009 (ip), vehicle: Klucel (hydroxypropylcellulose) (HPC)
# [3] = dose: 200.0 mg/kg/injection, schedule: Q01DX001 (ip), vehicle: saline
# [4] = dose: 400.0 mg/kg/injection, schedule: Q01DX001 (ip), vehicle: saline
# [5] = dose: 100.0 mg/kg/injection, schedule: Q04DX002 (ip), vehicle: Klucel (hydroxypropylcellulose) (HPC)
# [6] = dose: 200.0 mg/kg/injection, schedule: Q04DX002 (ip), vehicle: Klucel (hydroxypropylcellulose) (HPC)
# [7] = dose: 400.0 mg/kg/injection, schedule: Q04DX002 (ip), vehicle: Klucel (hydroxypropylcellulose) (HPC)
# [8] = dose: 300.0 mg/kg/injection, schedule: Q01DX001 (ip), vehicle: other
# [9] = dose: 100.0 mg/kg/injection, schedule: Q04DX003 (ip), vehicle: saline
# [10] = dose: 200.0 mg/kg/injection, schedule: Q04DX003 (ip), vehicle: saline
# [11] = dose: 400.0 mg/kg/injection, schedule: Q04DX003 (ip), vehicle: saline
# [12] = dose: 400.0 mg/kg/injection, schedule: Q04DX003 (ip), vehicle: Klucel (hydroxypropylcellulose) (HPC)
# [13] = dose: 75.0 mg/kg/injection, schedule: Q01DX001 (ip), vehicle: saline
# [14] = dose: 100.0 mg/kg/injection, schedule: Q01DX001 (ip), vehicle: saline
# [15] = dose: 200.0 mg/kg/injection, schedule: Q04DX002 (ip), vehicle: saline with Tween-80
# [16] = dose: 400.0 mg/kg/injection, schedule: Q04DX002 (ip), vehicle: saline with Tween-80
# [17] = dose: 200.0 mg/kg/injection, schedule: Q01DX009 (ip), vehicle: Klucel (hydroxypropylcellulose) (HPC)
smiles,measurement,setting,value
O=C(O)C(Br)C(Br)C(=O)Nc1cccc(C(F)(F)F)c1 (centres undefined),survivor count,"dose: 200.0 mg/kg/injection, schedule: Q01DX009 (ip), vehicle: other",2 of 6
same,survivor count,"dose: 400.0 mg/kg/injection, schedule: Q01DX009 (ip), vehicle: other",0 of 6
CN1c2ccccc2C(C)(C)C12C=Cc1ccccc1O2 (centres undefined),survivor count,"dose: 100.0 mg/kg/injection, schedule: Q04DX002 (ip), vehicle: gum acacia",3 of 3
same,survivor count,"dose: 400.0 mg/kg/injection, schedule: Q04DX002 (ip), vehicle: gum acacia",1 of 3
C/C(=N/NC(=O)CNC(=O)c1ccccc1)c1ccc2ccccc2c1,survivor count,[1],2 of 6
Cc1cccc(NC(=O)Nc2ccccc2F)n1,survivor count,[2],3 of 3
same,survivor count,"dose: 400.0 mg/kg/injection, schedule: Q01DX001 (ip), vehicle: Klucel (hydroxypropylcellulose) (HPC)",6 of 6
ClC1(Cl)CC1c1ccccc1 (centres undefined),survivor count,[1],2 of 6
CCC1(CC)CC1(Cl)Cl,survivor count,"dose: 300.0 mg/kg/injection, schedule: Q01DX001 (ip), vehicle: acetone",1 of 6
O=C(OCC1OC(n2cnc3c(=S)nc[nH]c32)C(OC(=O)c2ccc([N+](=O)[O-])cc2)C1OC(=O)c1ccc([N+](=O)[O-])cc1)c1ccc([N+](=O)[O-])cc1 (centres undefined),T/C,"dose: 66.0 mg/kg/injection, schedule: Q01DX009 (ip), vehicle: saline with Tween-80",138 % of control
same,T/C,"dose: 132.0 mg/kg/injection, schedule: Q01DX009 (ip), vehicle: saline",148 % of control
same,T/C,[3],129 % of control
same,T/C,"dose: 200.0 mg/kg/injection, schedule: Q01DX Z (ip), vehicle: other",125 % of control
same,T/C,"dose: 300.0 mg/kg/injection, schedule: Q01DX001 (ip), vehicle: saline",128 % of control
same,T/C,"dose: 300.0 mg/kg/injection, schedule: Q01DX009 (ip), vehicle: saline",139 % of control
same,survivor count,[4],3 of 6
same,T/C,"dose: 400.0 mg/kg/injection, schedule: Q01DX Z (ip), vehicle: other",130 % of control
N#CSCCSC#N,survivor count,"dose: 20.0 mg/kg/injection, schedule: Q04DX003 (ip), vehicle: Klucel (hydroxypropylcellulose) (HPC)",0 of 6
same,survivor count,"dose: 40.0 mg/kg/injection, schedule: Q04DX003 (ip), vehicle: Klucel (hydroxypropylcellulose) (HPC)",0 of 6
same,survivor count,[5],0 of 3
same,survivor count,[6],0 of 3
same,survivor count,[7],0 of 3
CC(C)/C(=C\c1ccccc1)C(=O)c1ccccc1,survivor count,"dose: 400.0 mg/kg/injection, schedule: Q04DX003 (ip), vehicle: saline with Tween-80",5 of 6
CC1CCC(NCCOC(=O)c2ccc(N)cc2)CC1 (centres undefined),survivor count,[8],0 of 6
CCCCCC(=O)c1c(O)cc2c(c1O)C(=O)c1c(O)cc(O)cc1C2=O,survivor count,"dose: 30.0 mg/kg/injection, schedule: Q01DX001 (ip), vehicle: saline",6 of 6
CCN(CC)C(C)COC(=O)c1ccc(N)cc1 (centres undefined),survivor count,[9],6 of 6
same,survivor count,[10],0 of 6
same,survivor count,[11],1 of 6
Cn1c(=O)cc(C=Nc2ccc(O)cc2)c2ccccc21,survivor count,[4],6 of 6
COC(=O)C1CCCN(C)C1c1c[nH]c2ccccc12 (centres undefined),survivor count,[8],0 of 6
C#CC(C)(O)CC(C)C (centres undefined),survivor count,[4],1 of 4
O=C(CCN1CC1)Nc1ccc(Cc2ccc(NC(=O)CCN3CC3)cc2)cc1,survivor count,"dose: 100.0 mg/kg/injection, schedule: Q04DX003 (ip), vehicle: Klucel (hydroxypropylcellulose) (HPC)",3 of 6
same,survivor count,"dose: 200.0 mg/kg/injection, schedule: Q04DX003 (ip), vehicle: Klucel (hydroxypropylcellulose) (HPC)",0 of 6
same,survivor count,[12],0 of 6
O=P(N1CCOCC1)(N1CC1)N1CC1,T/C,"dose: 8.0 mg/kg/injection, schedule: Q01DX015 (ip), vehicle: saline",139 % of control
same,T/C,"dose: 22.0 mg/kg/injection, schedule: Q01DX001 (ip), vehicle: saline, evaluated on day 30",129 and 132 % of control
same,T/C,"dose: 22.0 mg/kg/injection, schedule: Q01DX001 (ip), vehicle: saline, run until all animals had died","123 (2×), 126, 134 % of control"
same,T/C,"dose: 33.0 mg/kg/injection, schedule: Q01DX001 (ip), vehicle: saline",143 and 149 % of control
same,T/C,"dose: 50.0 mg/kg/injection, schedule: Q01DX001 (ip), vehicle: saline, evaluated on day 30",142 % of control
same,T/C,"dose: 50.0 mg/kg/injection, schedule: Q01DX001 (ip), vehicle: saline, run until all animals had died","140, 151, 157, 162, 235 % of control"
same,survivor count,"dose: 50.0 mg/kg/injection, schedule: Q01DX009 (ip), vehicle: saline",7 of 7
same,T/C,[13],"121, 149, 162, 221 % of control"
same,survivor count,[13],3 of 6
same,survivor count,[14],"0 of 4, 2 of 4, 4 of 4"
same,survivor count,[9],4 of 7
same,survivor count,[3],3 of 4
same,survivor count,[10],5 of 7
same,survivor count,[4],2 of 4
same,survivor count,[11],3 of 7
N#CCCC(C#N)(c1cccnc1)N1CCOCC1 (centres undefined),survivor count,"dose: 100.0 mg/kg/injection, schedule: Q04DX002 (ip), vehicle: saline with Tween-80",0 of 3
same,survivor count,[15],0 of 3
same,survivor count,[16],0 of 3
CC(=O)OC1=NC(C)c2c1cc(OC(C)=O)[nH]c2=O (centres undefined),survivor count,[2],6 of 6
same,survivor count,[17],2 of 6
same,survivor count,[12],3 of 6
COc1cc([N+](=O)[O-])c2nc(C(=O)O)ccc2c1,T/C,[4],125 % of control [3 of 4 alive]
CC(=O)OC1C=CCC2C(=O)c3cc4ccccc4cc3C(=O)C12 (centres undefined),survivor count,"dose: 400.0 mg/kg/injection, schedule: Q01DX001 (ip), vehicle: other",0 of 4
Cc1cc(C(=O)/C=C(\C(=O)c2ccccc2)c2ccccc2)ccc1Cl,survivor count,[6],1 of 3
same,survivor count,[7],0 of 3
CN=C(NC)c1ccc(NC(=O)c2ccc(C(=O)Nc3ccc(C(=NC)NC)cc3)c(N)c2)cc1,T/C,"dose: 18.0 mg/kg/injection, schedule: Q01DX Z (ip), vehicle: carboxymethylcellulose (CMC)",139 % of control
C[N+]12CC3C(O)CC1CCC32 (centres undefined),survivor count,[14],1 of 6
same,survivor count,[3],0 of 6 and 2 of 6
same,survivor count,[4],0 of 6 (2×)
CN(C)S(=O)(=O)c1ccc(CC(O)(c2ccccc2)c2ccccc2)cc1,T/C,"dose: 200.0 mg/kg/injection, schedule: Q01DX001 (ip), vehicle: carboxymethylcellulose (CMC)",131 % of control
Cc1ccc(NN)cc1Cl,survivor count,[12],0 of 6
Clc1ccc(SCSc2nc3ccccc3s2)cc1,survivor count,[5],3 of 3
same,survivor count,[6],3 of 3
same,survivor count,[7],3 of 3
CCCCCCC(C)NCC(C)O (centres undefined),survivor count,"dose: 150.0 mg/kg/injection, schedule: Q01DX001 (ip), vehicle: acid diluted with saline",0 of 6
same,survivor count,"dose: 300.0 mg/kg/injection, schedule: Q01DX001 (ip), vehicle: acid diluted with saline",0 of 6
O=[N+]([O-])c1ccc(/C=C/c2ncc[nH]2)o1,survivor count,[12],3 of 6
OC1OCCOC1O (centres undefined),survivor count,"dose: 600.0 mg/kg/injection, schedule: Q01DX009 (ip), vehicle: saline",5 of 6
same,survivor count,"dose: 800.0 mg/kg/injection, schedule: Q01DX009 (ip), vehicle: saline",0 of 6
N#CC1(c2ccccc2)OC1(c1ccccc1)c1ccccc1 (centres undefined),survivor count,[7],3 of 3
CCC1CCC(Cc2ccncc2)CC1 (centres undefined),survivor count,[12],6 of 6
Nc1ccc(OC(=O)Nc2ccc(O)cc2)cc1,survivor count,"dose: 120.0 mg/kg/injection, schedule: Q01DX Z (ip), vehicle: saline",6 of 6
Oc1c(Br)cc(Br)cc1/C=N/N=C/c1cc(Br)cc(Br)c1O,survivor count,[17],6 of 6
O=N[O-].O=N[O-].[Co].[NH2-].[NH2-].[NH2-].[NH2-],survivor count,[15],1 of 3
same,survivor count,[16],0 of 3
